Results on one sequence are retold here after publication PMC8546604.

The data set deals with MucR1 (Sinorhizobium fredii CCBAU45436 (SF45436)). Briefly: EMSA. The note with it: 4.5 and 13.5 uM protein; 25 mM Tris-HCl pH 8.0, 5% glycerol, 0.05% n-dodecyl-beta-D-maltoside, 0.5 mg/ml BSA, 0.1 mg/ml sonicated salmon sperm DNA, 12.3 nM Cy5-DNA; 20 C, 30 min; recombinant protein; label: 5'-Cy5 on sense strand. Background: In EMSA bound probe runs differently from free probe, usually more slowly.

For at least one entry, the source does not settle the construct or the ends of the probe. Negatives hold for the conditions tested. At least one verdict rests on a figure or table, not on a statement of the authors.

As to “GCTGCGTTCCGAGCCGGTGCGCGCTCCGGCCGGGAGCGCATCGCA (double strand) [c04750 promoter (Cy5-c04750IR), 45 bp]”, the binding result is “no binding”.
